Results taken from US20090123563A1 (NOVO NORDISK A/S, priority 2005, published 2009).

How the values were obtained:
[1] = general procedure: Fmoc solid-phase peptide synthesis; Rink amide AM resin (Novabiochem); DIC/HOAt/HOBt; details: whole synthesis
[2] = general procedure: Fmoc solid-phase peptide synthesis; Rink amide AM resin; DIC/HOAt/HOBt; details: whole synthesis, scale 0.25 mmol

Question: With “4-[3-(1H-Tetrazol-5-yl)carbazol-9-ylmethyl]benzoyl-Glu (-Arg6-NH2)-Arg6-NH2” as the substance, how does the isolated yield [1] read?
Answer: 10%

Question: Which crude mass [2] does the source give for “H-Arg7-Lys(4-[3-(1H-Tetrazol-5-yl)carbazol-9-ylmethyl]benzoyl)-Arg6-NH2” here?
Answer: 363 mg

Question: With “4-[3-(2H-Tetrazol-5-yl)carbazol-9-ylmethyl]benzoyl-Lys(Arg6-yl)-Arg6-NH2” as the substance, how does the crude mass ([1]; scale 0.82 mmol) read?
Answer: 2.2 g

Question: With “H-Arg-Lys(Arg-yl)-Lys(Arg-Lys(Arg-yl)-yl)-Lys(Arg-Lys(Arg-yl)-yl)-Lys(4-[3-(2H-tetrazol-5-yl)carbazol-9-ylmethyl]benzoyl)-NH2” as the substance, how does the crude mass ([1]; scale 1 mmol) read?
Answer: 1.5 g
